Values from PubChem BioAssay AID686943 (Drosophila RNAi Screening Center, 2013).

Test: 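Knockdowns that increase or decrease active ERK after insulin receptor stimulation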 (primary screen)
System: Drosophila S2R+ haemocyte-like cells expressing YFP-tagged ERK (Rolled)
Reagent: long dsRNA against Drosophila genes
Treatment: insulin stimulation versus unstimulated cells; dose and duration not given
Measurement: 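Per-plate z-scores of phospho-ERK immunostaining normalised to YFP-tagged ERK, measured with and without insulin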
Scale: replicate 1, z-score of dpERK with insulin and replicate 2, z-score of dpERK with insulin: higher = more active ERK per ERK-YFP after insulin
The deposit covers about 23,000 reagents; below is a random part of those with a known target gene and a result. 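Extra replicates exist only for a retested subset of genes; insulin dose and duration not given; both raised and lowered dpERK matter.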 Further read-outs or replicates are left out here. Not stated in the record: the amount of reagent, the time to read-out.

With CG8661 [DRSC20115], how do the results read?
replicate 1, z-score of dpERK with insulin: 0.94; replicate 2, z-score of dpERK with insulin: 0.34

Which result is listed for ldbr (lariat debranching enzyme) [DRSC10933]?
replicate 1, z-score of dpERK with insulin: 0.17; replicate 2, z-score of dpERK with insulin: -0.21

What is on record for prd1 (pruning defect 1) [DRSC15227]?
replicate 1, z-score of dpERK with insulin: -0.84; replicate 2, z-score of dpERK with insulin: -2.11

For CG34326 (retired record) [DRSC19165], what was measured?
replicate 1, z-score of dpERK with insulin: -0.26; replicate 2, z-score of dpERK with insulin: -0.09

What is on record for fz2 (frizzled 2) [DRSC09595]?
replicate 1, z-score of dpERK with insulin: -0.93; replicate 2, z-score of dpERK with insulin: -0.04

What is on record for fz2 (frizzled 2) [DRSC10087]?
replicate 1, z-score of dpERK with insulin: -0.36; replicate 2, z-score of dpERK with insulin: -0.4

For fz2 (frizzled 2) [DRSC11349], what does the deposit list?
replicate 1, z-score of dpERK with insulin: 0.7; replicate 2, z-score of dpERK with insulin: -0.13

With CG13437 [DRSC06397], what was measured?
replicate 1, z-score of dpERK with insulin: 0.1; replicate 2, z-score of dpERK with insulin: -0.81

How did the screen score CycD (Cyclin D) [DRSC20233]?
replicate 1, z-score of dpERK with insulin: -4.06; replicate 2, z-score of dpERK with insulin: -3.11

How did the screen score CG8840 [DRSC00713]?
replicate 1, z-score of dpERK with insulin: 0.08; replicate 2, z-score of dpERK with insulin: -0.6

What did the screen give for Ptp69D (Protein tyrosine phosphatase 69D) [DRSC11258]?
replicate 1, z-score of dpERK with insulin: -0.32; replicate 2, z-score of dpERK with insulin: -0.14

With hiro (highroad) [DRSC08564], what does the deposit list?
replicate 1, z-score of dpERK with insulin: 1.04; replicate 2, z-score of dpERK with insulin: -0.48

With pcm (pacman) [DRSC20361], what does the deposit list?
replicate 1, z-score of dpERK with insulin: -0.13; replicate 2, z-score of dpERK with insulin: -0.39

Which result is listed for CG31195 [DRSC13440]?
replicate 1, z-score of dpERK with insulin: 1.17; replicate 2, z-score of dpERK with insulin: 1.61

For Taldo (Transaldolase) [DRSC04320], what was measured?
replicate 1, z-score of dpERK with insulin: 0.24; replicate 2, z-score of dpERK with insulin: 0.26

With r (rudimentary) [DRSC19813], what does the deposit list?
replicate 1, z-score of dpERK with insulin: 0.17; replicate 2, z-score of dpERK with insulin: 0.27

What is on record for r (rudimentary) [DRSC19814]?
replicate 1, z-score of dpERK with insulin: 0.04; replicate 2, z-score of dpERK with insulin: 0.02

How did the screen score Su(z)3 (retired record) [DRSC07558]?
replicate 1, z-score of dpERK with insulin: -4.36; replicate 2, z-score of dpERK with insulin: -3.18

With CG31606 [DRSC01012], what was measured?
replicate 1, z-score of dpERK with insulin: -0.17; replicate 2, z-score of dpERK with insulin: -0.15

What is on record for CG12078 [DRSC08242]?
replicate 1, z-score of dpERK with insulin: 0.72; replicate 2, z-score of dpERK with insulin: 0.21

What is on record for HLH54F [DRSC07438]?
replicate 1, z-score of dpERK with insulin: -0.44; replicate 2, z-score of dpERK with insulin: -1.34

With tomboy20 [DRSC14913], how do the results read?
replicate 1, z-score of dpERK with insulin: -0.12; replicate 2, z-score of dpERK with insulin: 0.53

What is on record for CG2652 [DRSC18501]?
replicate 1, z-score of dpERK with insulin: 0.43; replicate 2, z-score of dpERK with insulin: 1.05

What is on record for CG2652 [DRSC22576]?
replicate 1, z-score of dpERK with insulin: -0.41; replicate 2, z-score of dpERK with insulin: -0.29

With Snm1 [DRSC12130], how do the results read?
replicate 1, z-score of dpERK with insulin: 0.08; replicate 2, z-score of dpERK with insulin: -0.1

What did the screen give for Listericin [DRSC07334]?
replicate 1, z-score of dpERK with insulin: -0.14; replicate 2, z-score of dpERK with insulin: -0.18

How did the screen score ND-ACP [DRSC08724]?
replicate 1, z-score of dpERK with insulin: 1.48; replicate 2, z-score of dpERK with insulin: 0.13

For Hex-t2 (Hexokinase testis 2) [DRSC22517], what was measured?
replicate 1, z-score of dpERK with insulin: 0.12; replicate 2, z-score of dpERK with insulin: -0.46

For RagC-D (Ras-related GTP binding C/D) [DRSC07239], how do the results read?
replicate 1, z-score of dpERK with insulin: 0.22; replicate 2, z-score of dpERK with insulin: -0.32

What is on record for CG15034 [DRSC17966]?
replicate 1, z-score of dpERK with insulin: 0.64; replicate 2, z-score of dpERK with insulin: -0.13

With Tsp42Ef (Tetraspanin 42Ef) [DRSC06191], what was measured?
replicate 1, z-score of dpERK with insulin: 0.45; replicate 2, z-score of dpERK with insulin: -0.59

Quoted from above for reference:
pcm (pacman) [DRSC20361] — replicate 1, z-score of dpERK with insulin: -0.13; replicate 2, z-score of dpERK with insulin: -0.39
CG31195 [DRSC13440] — replicate 1, z-score of dpERK with insulin: 1.17; replicate 2, z-score of dpERK with insulin: 1.61
Taldo (Transaldolase) [DRSC04320] — replicate 1, z-score of dpERK with insulin: 0.24; replicate 2, z-score of dpERK with insulin: 0.26
